The record followed here is PubChem BioAssay AID330 (DTP/NCI, 2004).

SMILES strings stand for the structures. The list shows only some results of the screen, not a fair sample: it is rich in T/C values a quarter to a half above the control, in often repeated tests (any T/C) and in doses without a T/C. Other doses and runs of a compound stand elsewhere. T/C gives the treated animals as a percentage of the vehicle group. Some entries give survivors of the animals treated and no T/C: the source holds a T/C of zero for them, seemingly a mark for toxic or unscored doses. Some survivor counts are full or nearly so, which does not show that the dose was tolerated: survival well below the control is almost never listed, so the zero probably covers shortened survival too. Counts of survivors are from the toxicity check (mostly the fifth day) where no day follows; animals may have died later. Schedule codes are those of the source, read here as Q, the interval in days (D) or hours (H), X, the number of doses. Some entries hold several experiments; the results are listed from low to high. Where survival is the endpoint, this PubChem deposit counts one and a half times the control or more as active, and values a quarter to a half above the control carry no call in these data; other NCI protocols may use other cut-offs. Some T/C values are followed by the survivors on the day toxicity was checked, most often the fifth; without a count, all were alive then.

The subject of this experiment is P388 leukemia ip, CD2F1 mice, survival T/C. Description: NCI In Vivo Anticancer Drug Screen. Data for tumor model P388 Leukemia (intraperitoneal) in CD2F1 (CDF1) mice. Conditions: T/C endpoint: median survival time, higher T/C = longer survival.
[1] abbreviates: dose: 30.0 mg/kg/injection, schedule: Q01DX005 (ip), vehicle: saline with Tween-80.
Where [2] appears, read: dose: 60.0 mg/kg/injection, schedule: Q01DX005 (ip), vehicle: saline with Tween-80.
The mark [3] stands for this setting: dose: 120.0 mg/kg/injection, schedule: Q01DX005 (ip), vehicle: saline with Tween-80.
[4] abbreviates: dose: 240.0 mg/kg/injection, schedule: Q01DX005 (ip), vehicle: saline with Tween-80.
Where [5] appears, read: dose: 100.0 mg/kg/injection, schedule: Q01DX005 (ip), vehicle: Klucel (hydroxypropylcellulose) (HPC).
The mark [6] stands for this setting: dose: 200.0 mg/kg/injection, schedule: Q01DX005 (ip), vehicle: Klucel (hydroxypropylcellulose) (HPC).
Where [7] appears, read: dose: 200.0 mg/kg/injection, schedule: Q01DX009 (ip), vehicle: saline with Tween-80.
Setting [8] is: dose: 50.0 mg/kg/injection, schedule: Q01DX009 (ip), vehicle: saline with Tween-80.
[9] abbreviates: dose: 100.0 mg/kg/injection, schedule: Q01DX009 (ip), vehicle: saline with Tween-80.

As for `CC(=O)[O][Hg][c]1cc(-c2ccc(N=Nc3c(S(=O)(=O)O)cc4cccc(N)c4c3O)cc2)ccc1N=Nc1c(S(=O)(=O)O)cc2cccc(N)c2c1O`, the survivor count (dose: 12.5 mg/kg/injection, schedule: Q04DX003 (ip), vehicle: saline with Tween-80) is 5 of 6.

On to `CCN(CC)CCNC(=O)c1ccc2c(c1O)C(=O)c1ccccc1C2=O`, for which the survivor count (dose: 200.0 mg/kg/injection, schedule: Q01DX005 (ip), vehicle: saline with Tween-80) was 0 of 5.

Turning to `CCC[CH2][Sn]([CH2]CCC)([S]/C(C#N)=N/N=C/c1ccc(N(C)C)cc1)[S]/C(C#N)=N/N=C/c1ccc(N(C)C)cc1`, the survivor count runs as follows: (dose: 15.0 mg/kg/injection, schedule: Q01DX005 (ip), vehicle: saline with Tween-80) 4 of 6; under setting [1], 0 of 6; under setting [2], 2 of 6; under setting [3], 0 of 6; under setting [4], 0 of 6.

Regarding `CN(C)CCSc1c2ccccc2nc2ccccc12`, the survivor count is 6 of 6 (dose: 12.5 mg/kg/injection, schedule: Q01DX005 (ip), vehicle: Klucel (hydroxypropylcellulose) (HPC)); 1 of 6 under setting [5]; 0 of 6 under setting [6].

With `CNC(=O)OCc1c(COC(=O)NC)c(-c2ccc(Cl)cc2)n2c1CCC2`, the T/C (dose: 3.13 mg/kg/injection, schedule: Q01DX009 (ip), vehicle: Klucel (hydroxypropylcellulose) (HPC)) is 127 % of control. The survivor count by setting is: (dose: 100.0 mg/kg/injection, schedule: Q01DX009 (ip), vehicle: Klucel (hydroxypropylcellulose) (HPC)) 1 of 6; (dose: 200.0 mg/kg/injection, schedule: Q01DX009 (ip), vehicle: Klucel (hydroxypropylcellulose) (HPC)) 0 of 6.

Turning to `O=c1oc2ccccc2c(O)c1C1=N/C(=N/N=C/c2ccc(Cl)cc2)SC1`, the survivor count is recorded as 6 of 6 (dose: 120.0 mg/kg/injection, schedule: Q01DX005 (ip), vehicle: Klucel (hydroxypropylcellulose) (HPC)) and 6 of 6 (dose: 240.0 mg/kg/injection, schedule: Q01DX005 (ip), vehicle: Klucel (hydroxypropylcellulose) (HPC)).

As to `c1ccc(C(c2ccccc2)[P+](c2ccccc2)(c2ccccc2)c2ccccc2)cc1`, the T/C (dose: 0.63 mg/kg/injection, schedule: Q01DX009 (ip), vehicle: Klucel (hydroxypropylcellulose) (HPC)) was 126 % of control. Also, the survivor count by setting is: (dose: 2.5 mg/kg/injection, schedule: Q01DX009 (ip), vehicle: Klucel (hydroxypropylcellulose) (HPC)) 5 of 6; (dose: 5.0 mg/kg/injection, schedule: Q01DX009 (ip), vehicle: Klucel (hydroxypropylcellulose) (HPC)) 3 of 6; (dose: 10.0 mg/kg/injection, schedule: Q01DX009 (ip), vehicle: Klucel (hydroxypropylcellulose) (HPC)) 1 of 6.

As for `CN1C(=O)N(C)C(=O)C(Cl)(Cl)C1=O`, the survivor count reads like this: (dose: 50.0 mg/kg/injection, schedule: Q01DX005 (ip), vehicle: Klucel (hydroxypropylcellulose) (HPC)) 5 of 6; under setting [5], 0 of 6; under setting [6], 0 of 6.

For `COc1ccc(C(=O)CC[N+](C)(C)C)cc1`, the survivor count is, setting by setting: (dose: 50.0 mg/kg/injection, schedule: Q01DX009 (ip), vehicle: saline) 1 of 6 and 6 of 6; (dose: 100.0 mg/kg/injection, schedule: Q01DX009 (ip), vehicle: saline) 0 of 6; (dose: 200.0 mg/kg/injection, schedule: Q01DX009 (ip), vehicle: saline) 0 of 6.

On to `CN(C)C12CCCCCC1S(=O)(=O)C2` (stereo not drawn), for which, under setting [7], the survivor count is 3 of 6.

Consider `C(=C\c1cc(-c2cc(/C=C/c3ccccc3)[nH]n2)n[nH]1)/c1ccccc1`, for which the survivor count under setting [4] was 3 of 6.

With `OCc1ccc(O)c(O)c1`, the T/C runs as follows: (dose: 50.0 mg/kg/injection, schedule: Q01DX005 (ip), vehicle: saline) 130 % of control; (dose: 200.0 mg/kg/injection, schedule: Q01DX005 (ip), vehicle: saline) 129 % of control; (dose: 400.0 mg/kg/injection, schedule: Q01DX005 (ip), vehicle: saline) 130 % of control.

As for `Cc1ccc(NC(=O)/C(Cl)=C(\Cl)C(=O)O)cc1C`, the survivor count is given as 2 of 6 under setting [1], 0 of 6 under setting [2], 0 of 6 under setting [3] and 0 of 6 under setting [4].

`CNc1nc2c(C)ccc3[nH]c(N(C)C)nc3c-2n1`: under setting [6], the survivor count is on record as 5 of 6.

In the case of `C=CCC1CCSC1=O` (stereo not drawn), the T/C is 133 % of control (dose: 50.0 mg/kg/injection, schedule: Q04DX003 (ip), vehicle: saline with Tween-80) and 135 % of control (dose: 100.0 mg/kg/injection, schedule: Q04DX003 (ip), vehicle: saline with Tween-80).

On to `COc1cc2c(cc1O)NC(OC)C1CC(O)CN1C2=O` (stereo not drawn), for which the T/C is 128 and 133 % of control (dose: 4.0 mg/kg/injection, schedule: Q01DX005 (ip), vehicle: saline with Tween-80); 128 and 130 % of control [5 of 6 alive] (dose: 8.0 mg/kg/injection, schedule: Q01DX005 (ip), vehicle: saline with Tween-80). Further, the survivor count is 4 of 6 (dose: 16.0 mg/kg/injection, schedule: Q01DX005 (ip), vehicle: saline with Tween-80) and 0 of 6 (dose: 32.0 mg/kg/injection, schedule: Q01DX005 (ip), vehicle: saline with Tween-80).

For the compound `Clc1ccc(N=c2ccn3ccccc3c2)cc1Cl`, the survivor count runs as follows: under setting [8], 4 of 6; under setting [9], 0 of 6; under setting [7], 0 of 6.

For `CCC(c1ccc(O)cc1)C(CC)c1ccc(OCCN)cc1` (stereo not drawn), the T/C is, setting by setting: under setting [3], 125 % of control; under setting [4], 127 % of control. In addition, the survivor count under setting [4] is on record as 4 of 6.

`C=CC(=NC(C)C)N(C)c1ccccc1`: the survivor count runs as follows: under setting [8], 0 of 6; under setting [9], 0 of 6; under setting [7], 0 of 6.

As to `C=C1NC(=O)C(N)=C1C(C)=O`, under setting [4], the T/C was 125 % of control.

As to `COc1cc(N(C)C)c(OC)cc1/C=C\c1ccnc2ccccc12`, the T/C (dose: 200.0 mg/kg/injection, schedule: Q04DX003 (ip), vehicle: saline with Tween-80) is 136 % of control. Further, the survivor count (dose: 400.0 mg/kg/injection, schedule: Q04DX003 (ip), vehicle: saline with Tween-80) is recorded as 6 of 6.
